Measurements reported in PMC6555848.
Results are given in words; binding and its absence hold for the method and conditions named. Some entries that bind do so weakly or less than the wild type.

Protein sequences, listed by entry. Tags and fused reporters are not part of them.
UniProt P51692: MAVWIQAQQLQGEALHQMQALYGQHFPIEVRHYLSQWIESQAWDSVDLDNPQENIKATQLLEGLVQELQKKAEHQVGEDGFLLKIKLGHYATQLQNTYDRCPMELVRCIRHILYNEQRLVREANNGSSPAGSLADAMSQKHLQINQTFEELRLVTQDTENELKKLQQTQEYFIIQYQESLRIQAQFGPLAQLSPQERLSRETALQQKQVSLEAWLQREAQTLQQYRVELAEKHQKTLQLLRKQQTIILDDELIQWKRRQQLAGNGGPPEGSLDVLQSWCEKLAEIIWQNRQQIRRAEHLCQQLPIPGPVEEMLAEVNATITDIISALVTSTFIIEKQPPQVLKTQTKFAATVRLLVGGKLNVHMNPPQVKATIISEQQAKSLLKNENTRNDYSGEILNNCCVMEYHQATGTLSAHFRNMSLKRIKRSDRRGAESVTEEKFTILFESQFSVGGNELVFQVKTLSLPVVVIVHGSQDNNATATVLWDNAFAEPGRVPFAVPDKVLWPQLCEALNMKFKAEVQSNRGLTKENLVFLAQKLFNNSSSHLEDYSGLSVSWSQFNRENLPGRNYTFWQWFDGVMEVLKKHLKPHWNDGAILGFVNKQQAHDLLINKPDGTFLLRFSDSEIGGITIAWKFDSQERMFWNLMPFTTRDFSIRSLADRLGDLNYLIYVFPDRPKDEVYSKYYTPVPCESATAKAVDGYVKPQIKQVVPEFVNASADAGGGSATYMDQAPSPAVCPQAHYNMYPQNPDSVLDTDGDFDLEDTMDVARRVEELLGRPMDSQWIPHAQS

Biological target: full-length human STAT5B (M1-S787) (human) (UniProt P51692)
Test: SEC; gel filtration of full-length STAT5B (Supplementary Fig. 5); conditions not shown; both purified

binding: binds
Substance: full-length human STAT5B (M1-S787) (from UniProt P51692 1-787)
